Data from PubChem BioAssay AID624109 (Broad Institute, 2012).
The shares of active, inactive and inconclusive entries below differ from those in the screen. The source made the active and inactive calls.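 The calls were made as follows: active = curve reaches the -35% threshold at a concentration no more than twice the top valid dose, in duplicate at both wavelengths; inconclusive = no clear call, values can overlap the other calls; inactive = the rest, including effects opposite to the expected decrease.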

experiment: P. aeruginosa growth delay under iron chelation, dose response, absorbance 405 nm, dry powder, set 6 (AID 624109); conditions: P. aeruginosa growth with EDDHA, stronger effect = lower value; at 0.5 µM unless noted
Summary of the method: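 Test system – P. aeruginosa ATCC 15692 bacteria · Input – final OD600 0.0000005 inoculum · Medium – succinate M9 medium at pH 7.0 with iron chelator EDDHA · Incubation – 24-30 h growth at 37 °C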

Compound | max activity
N#CC(c1ccc(C(F)(F)F)c(Cl)n1)c1ccccc1OC(F)(F)F (configuration not stated) | inconclusive: -49.2%
COCCOCCC(C#N)c1ccc(F)cc1 (configuration not stated) | inconclusive: -49.1% [at 0.0195 µM]
N#CC(c1ccc(Cl)cc1)N1CCCC1 (configuration not stated) | inconclusive: -55.8% [at 42 µM]
CCCCC(C#N)c1ccc(F)cn1 (configuration not stated) | inactive: -30.6%
CCCCC(c1ccc(Cl)cc1)c1nn[nH]n1 (configuration not stated) | inconclusive: -52.7% [at 120 µM]
CN(C)CCCC(C#N)c1ccc(F)cc1 (configuration not stated) | inconclusive: -43.3%
CCCCC(C#N)c1ccc(F)cc1 (configuration not stated) | inactive: -50.3% [at 1.5 µM]
